Experimental data reported in doi:10.1101/2025.03.26.645482.
These are yes or no findings as the source states them, for the method shown. Some results given as binding are weak or reduced against the parent protein; the word gives no strength.

Chains of the proteins cited; added tags and fusions are not shown. Residues count along the entry.
UniProt O75530: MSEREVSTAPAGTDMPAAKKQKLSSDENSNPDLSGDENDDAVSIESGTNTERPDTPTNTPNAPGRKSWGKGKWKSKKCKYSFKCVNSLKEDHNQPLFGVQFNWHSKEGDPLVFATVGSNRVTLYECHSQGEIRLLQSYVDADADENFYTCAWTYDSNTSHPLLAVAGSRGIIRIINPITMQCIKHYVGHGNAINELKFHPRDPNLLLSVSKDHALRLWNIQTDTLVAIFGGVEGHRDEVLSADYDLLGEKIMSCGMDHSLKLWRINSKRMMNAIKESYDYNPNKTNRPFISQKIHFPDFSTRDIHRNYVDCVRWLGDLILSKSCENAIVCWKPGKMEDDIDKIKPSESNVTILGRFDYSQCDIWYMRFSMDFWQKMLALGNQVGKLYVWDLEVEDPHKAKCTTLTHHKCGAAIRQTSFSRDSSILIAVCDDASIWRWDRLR
UniProt Q9Y483: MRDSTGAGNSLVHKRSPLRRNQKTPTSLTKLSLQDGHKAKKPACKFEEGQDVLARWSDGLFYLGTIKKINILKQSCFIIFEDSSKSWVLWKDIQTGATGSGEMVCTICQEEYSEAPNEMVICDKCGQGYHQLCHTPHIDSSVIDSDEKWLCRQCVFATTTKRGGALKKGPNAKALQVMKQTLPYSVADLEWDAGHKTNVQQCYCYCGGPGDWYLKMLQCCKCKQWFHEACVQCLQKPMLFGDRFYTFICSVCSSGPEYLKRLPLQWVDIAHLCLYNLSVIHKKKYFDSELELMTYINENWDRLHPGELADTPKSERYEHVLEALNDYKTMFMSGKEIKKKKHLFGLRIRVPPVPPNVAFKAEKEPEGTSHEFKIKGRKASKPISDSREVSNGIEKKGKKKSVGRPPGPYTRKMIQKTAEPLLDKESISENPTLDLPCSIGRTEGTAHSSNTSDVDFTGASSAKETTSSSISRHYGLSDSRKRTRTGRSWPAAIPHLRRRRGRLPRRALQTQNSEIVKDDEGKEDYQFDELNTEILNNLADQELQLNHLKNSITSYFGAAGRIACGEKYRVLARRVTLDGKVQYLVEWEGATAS
UniProt O43189: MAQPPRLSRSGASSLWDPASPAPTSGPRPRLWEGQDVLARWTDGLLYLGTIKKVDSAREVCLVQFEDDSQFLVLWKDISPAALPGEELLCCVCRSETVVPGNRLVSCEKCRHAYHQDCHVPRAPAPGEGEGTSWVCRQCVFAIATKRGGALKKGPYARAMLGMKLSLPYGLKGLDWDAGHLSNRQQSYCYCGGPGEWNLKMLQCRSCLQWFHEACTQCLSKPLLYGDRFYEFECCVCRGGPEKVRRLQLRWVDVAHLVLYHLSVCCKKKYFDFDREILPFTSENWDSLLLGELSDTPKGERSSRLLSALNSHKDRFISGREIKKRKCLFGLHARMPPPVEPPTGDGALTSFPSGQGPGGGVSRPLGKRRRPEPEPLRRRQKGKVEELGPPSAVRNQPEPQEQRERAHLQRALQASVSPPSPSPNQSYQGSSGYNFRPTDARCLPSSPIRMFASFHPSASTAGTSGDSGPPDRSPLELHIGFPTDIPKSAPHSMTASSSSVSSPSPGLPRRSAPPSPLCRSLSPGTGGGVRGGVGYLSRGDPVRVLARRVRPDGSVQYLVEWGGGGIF
UniProt Q15022, residues 146-363: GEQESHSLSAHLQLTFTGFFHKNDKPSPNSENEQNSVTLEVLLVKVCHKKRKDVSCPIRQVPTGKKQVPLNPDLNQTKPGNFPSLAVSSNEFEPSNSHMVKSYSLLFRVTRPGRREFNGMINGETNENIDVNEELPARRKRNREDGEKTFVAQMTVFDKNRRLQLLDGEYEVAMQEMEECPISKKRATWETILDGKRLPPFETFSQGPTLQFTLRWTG

Tests used:
Assay in all cases: co-purification
[1] = molecular target: His6-Flag-Eed-3C-StrepII (human) (UniProt O75530)
mEGFP-MTF2 (human) = mEGFP-MTF2 (human) (UniProt Q9Y483)
mEGFP-PHF1 (human) = mEGFP-PHF1 (human) (UniProt O43189)

binding [1]	binding (mEGFP-MTF2 (human))	binding (mEGFP-PHF1 (human))	Substance
binds			mEGFP-PHF1-StrepII (from UniProt O43189 1-567)
	binds	binds	SUZ12(C2) domain (residues 146-363) (from UniProt Q15022 146-363) (domain or fragment)
